Construct, isoform or probe ends are uncertain for at least one entry.
Test system: MBP-NbNTL9 (Nicotiana benthamiana)
Test: EMSA
Settings: unlabeled Pro-PR1-1 competes; Chemiluminescent EMSA Kit (Beyotime GS009), 20 or 50 nM biotinylated probe, 1-3 ug protein; pH and temperature not stated; recombinant protein; protein details: MBP (N-terminal); label: 3' biotin

TAATGCTTTAGGTGGTGAAGTATAG (double strand) [Pro-PR1-1]
binding result: binds
